Data as given in publication PMC10163288.
Some of the results follow.

B1: il2ra_site2_2erj_normal_mot_ef9cab360851164f21447f5d7f54bf9c_0001_1_000000008_0001_32_48_H_._HHH_b1_06039_af2_0001_0000200010_0000001_0 (protein)
chain: SSSSDELEELFRALSKLLHLIYRGDEEEFEELLREIKELAEELDSENVKEIVEFLERHFHSSSSS
B2: il2ra_site2_3nfp_normal_mot_HHH_b2_01155_000000159_0001_38_52_H_._HHH_b2_01829_0001_0000100005_0000001_0 (protein)
chain: SSSSSDEEERRVEELLEEAKRIEDEEEARELLAEALHLAYENRDSELFMLVAEVAFELLQSSSSS
B3: il2ra_site1_1z92_normal_mot_HHH_b1_03465_af2_000000044_0001_40_52_H_._HHH_b1_04869_af2_0001_0000300022_0000001_0 (protein)
chain: SSSSSDEEHERIEELFREAARIPDPEEARKVIEEALELAEELGSEELARDLREFLERLNSSSSSS
B4: il2ra_site2_2erj_sap_28_mot_b7929789c52af68ead34d201ecbf2d56_0001_1_000000071_0001_19_33_H_._HHH_b2_00937_af2_0001_0000100003_0000001_0_0001 (protein)
chain: SSSSNEELRELFKLAVELMRLTEEGDEEEFEKLWEKAEKLAEKLQSDNVKEILERLEKNVSSSSS
B5: il2ra_site2_2erj_normal_mot_HHH_b2_03913_af2_000000182_0001_1_19_H_._HHH_b2_00910_af2_0001_0000500011_0000001_0 (protein)
chain: SSSDQEAAELAAEAWREAAKLFRNGNPEEAKEVLQEYAELVKELGDEEALEAIERALKFLNSSSS
B6: il2ra_site2_2erj_normal_mot_HHH_b2_02303_000000050_0001_43_56_H_._HHH_b1_01446_0001_0000700019_0000001_1 (protein)
chain: SSSSSDVEEEVLELIAEAAHIKDPEEVRRLLEEALELAEENNDELLRRYVELSLRLAERSSSSSS
B7: il2ra_site2_3nfp_sap_15_mot_HHH_b1_08498_000000146_0001_21_37_H_._HHH_b1_04072_0001_0000600014_0000001_0_0001 (protein)
chain: DEEKELEKKAREAVEKNDPELALRVVDAAAQNPEAWEELIRVLRELDNLLRLYELAVRAYRKKRS
B8: il2ra_site1_2b5i_sap_12_mot_HHH_b1_05927_af2_000000070_0001_1_20_H_._HHH_b1_04668_0001_0000300014_0000001_0_0001_af2pred_dldesign_0_af2pred (protein)
chain: SSSSSSRRELLELAEKALKKLGAANKDEEYDELEALYEEYLRTRDPALAERLKEKSEKLLSSSSS
B9: il2ra_site1_3nfp_normal_mot_HHH_b1_08036_000000035_0001_1_19_H_._HHH_b2_05909_af2_0001_0000100003_0000001_0 (protein)
chain: SSSSSEYEEEVRELLEEAKEADERGDYERVKELLQKALELAKKNRDPELFRLIFEALRRFSSSSS
B10: il2ra_site1_3nfp_normal_mot_HHH_b2_01636_000000239_0001_1_19_H_._HHH_b2_04458_0002_0000400027_0000001_0_af2pred_0001_af2pred_1_swapped (protein)
chain: SSSSDEEELEELLEKLEEAIRNNDFKAAQKLSKEVAELILKTGDEEARRKLERLLRKAVKSSSSS
B11: il2ra_site1_1z92_sap_19_mot_HHH_b1_07792_af2_000000001_0001_1_16_H_._HHH_b1_05409_0001_0000200018_0000001_0_0001_af2pred_0001_af2pred_1 (protein)
chain: SSSSSSERNARIIVESLVRVARLSEEQQRILEELAERLVEEGYSFEEISRILDKEAEELDSSSSS
B12: il2ra_site1_1z92_sap_22_mot_HHH_b2_03302_000000138_0001_21_37_H_._HHH_b1_00461_0001_0000100001_0000001_0_0001_1 (protein)
chain: SLEEAAKLLQELAQDPWLEEILEKIVERIERGDPAARRLLERLLHDFLRLTGDPRLEELLEELRK
B13: il2ra_site1_2b5i_normal_mot_HHH_b1_02271_000000068_0001_1_16_H_._HHH_b1_08298_af2_0001_0000100004_0000001_0_af2pred_dldesign_0_af2pred (protein)
chain: SSSSSSSEVEKLIEEAKRLKEAGKRREALETLEEAYKLACAAGDEELEDKVEELARELSSSSSSS
B14: il2ra_site1_3nfp_sap_19_mot_119b7766384adbe86006a62bce89dba1_0001_af2_000000092_0001_18_32_H_._3633a07a64a68e62d76074d72b379c70_0001_1_af2_0001_0000100004_00000 … (protein)
chain: SSSSSALEFLERLAKRAFEEGDRRALRLLLEIIEKVLERTGTPEAEEVLEYIEELLRRLESSSSS
B15: il2ra_site2_3nfp_normal_mot_HHH_b2_05281_000000198_0001_39_56_H_._HHH_b2_05202_0001_0000600046_0000001_0 (protein)
chain: SSSSSDEEEERIEELLEEAKRVTDEEEVQKILAEATHLAFEANNPELFFEIAELAYELYSSSSSS
B16: il2ra_site2_3nfp_sap_27_mot_HHH_b2_01508_000000034_0001_1_17_H_._c20373e0b622ec25385dccec0cbfe82e_0001_1_0001_0000400004_0000001_0_0001_af2pred_0001_1_af2pred_s … (protein)
chain: SSSSSSDEEERVEELIERLEKVSEEERRELAAEALHLAWELNNPELFSAVAEALLRLDSSSSSSS
B17: il2ra_site1_3nfp_sap_20_mot_HHH_b2_05178_af2_000000174_0001_1_19_H_._HHH_b1_07472_0001_0000300011_0000001_0_0001_af2pred_0001_af2pred_swapped (protein)
chain: SSSSNDLSKRLQELLKLIIEARKRNDEELLEELIEEAKEIAEEANSPLARELVELFEENANSSSS
B18: il2ra_site2_2erj_normal_mot_HHH_b2_01353_af2_000000049_0001_23_39_H_._HHH_b2_01261_0001_0000200007_0000001_0_af2pred_0001_af2pred (protein)
chain: SSSSSDEEEVERLLEEAERLLENGNPEEARQALLEAFELALELGDEELEKRVIEAHLRLLSSSSS
B19: il2ra_site1_3nfp_normal_mot_HHH_b1_06126_000000053_0001_39_51_H_._HHH_b2_06815_0001_0000300024_0000001_0 (protein)
chain: SSSSSDIEERIRELLEEAKEIEDPREALRLFEEALRLAAKAQDPELERLVHEFVKELAGSSSSSS
B20: il2ra_site2_2erj_sap_10_mot_HHH_b1_08207_af2_000000250_0001_43_57_H_._HHH_b2_03076_0001_0000100015_0000001_0_0001 (protein)
chain: SSSSDWLHRLYELANRITELASRGNPEEAREVLEELQELAEEANSDNAKWVAEALEKHLNSSSSS
B21: il2ra_site1_1z92_normal_mot_c9a8daa1dfea21d1414aecde54be4f54_0001_1_af2_000000024_0001_32_46_H_._15f70e71ac3214bf43105af5abf4654e_0001_1_af2_0001_0000300029_000 … (protein)
chain: DEEAARKDLEFALKQGIPPRSVVRAVLLALEHELGDPEEALEVIERAIKLLNDPELEEVVEKLKP
B22: il2ra_site1_2b5i_normal_mot_HHH_b1_05608_000000027_0001_1_14_H_._HHH_b1_07838_af2_0001_0000100003_0000001_0_af2pred_dldesign_0_af2pred (protein)
chain: SSSSSALEAEVEATLAEARRLADAGRRREALEALEKIQKKLDEEDREDLEDRVVALAKELSSSSS
B23: il2ra_site1_2b5i_normal_mot_HHH_b2_04353_af2_000000128_0001_1_17_H_._HHH_b2_02609_0001_0000100009_0000001_0_af2pred_dldesign_0_af2pred (protein)
chain: SSSSDEVWDEVDRLYKEALRLWKEGKKEEAKELLEKALELAKAANDEKLIKDLEYLLKLISSSSS
B24: il2ra_site2_2erj_sap_21_mot_HHH_b1_00941_000000060_0001_45_58_H_._HHH_b1_04651_0001_0000200027_0000001_0_0001 (protein)
chain: SSSSDKEEIEELLEELEEALRRGDFHTFYRISREVYHLIVELGDEELAEVLARLAEEIMEQSSSS

Molecular target: il2ra, P01589
Test: yeast display titration

Apparent Kd, inactive:
B1 no binding seen
B2 no binding seen
B3 no binding seen
B4 no binding seen
B5 no binding seen
B6 no binding seen
B7 no binding seen
B8 no binding seen
B9 no binding seen
B10 no binding seen
B11 no binding seen
B12 no binding seen
B13 no binding seen
B14 no binding seen
B15 no binding seen
B16 no binding seen
B17 no binding seen
B18 no binding seen
B19 no binding seen
B20 no binding seen
B21 no binding seen
B22 no binding seen
B23 no binding seen
B24 no binding seen

Quoted at random: 2 records from the list
Apparent Kd, inactive:
B11 no binding seen
B6 no binding seen
